No constants are given. Whether binding was seen depends on the method and setting. In cells and extracts the contact can be indirect. Some binding calls cover weakened binding; strength is not graded here. For some of these results: Where a sequence is shown, tags or fusion partners need not be part of it.

Amino acid sequences for entries named in this document (tags omitted). A change or cut given only in a name is not applied to a line headed by its entry. Residues count along the entry.
UniProt P35569: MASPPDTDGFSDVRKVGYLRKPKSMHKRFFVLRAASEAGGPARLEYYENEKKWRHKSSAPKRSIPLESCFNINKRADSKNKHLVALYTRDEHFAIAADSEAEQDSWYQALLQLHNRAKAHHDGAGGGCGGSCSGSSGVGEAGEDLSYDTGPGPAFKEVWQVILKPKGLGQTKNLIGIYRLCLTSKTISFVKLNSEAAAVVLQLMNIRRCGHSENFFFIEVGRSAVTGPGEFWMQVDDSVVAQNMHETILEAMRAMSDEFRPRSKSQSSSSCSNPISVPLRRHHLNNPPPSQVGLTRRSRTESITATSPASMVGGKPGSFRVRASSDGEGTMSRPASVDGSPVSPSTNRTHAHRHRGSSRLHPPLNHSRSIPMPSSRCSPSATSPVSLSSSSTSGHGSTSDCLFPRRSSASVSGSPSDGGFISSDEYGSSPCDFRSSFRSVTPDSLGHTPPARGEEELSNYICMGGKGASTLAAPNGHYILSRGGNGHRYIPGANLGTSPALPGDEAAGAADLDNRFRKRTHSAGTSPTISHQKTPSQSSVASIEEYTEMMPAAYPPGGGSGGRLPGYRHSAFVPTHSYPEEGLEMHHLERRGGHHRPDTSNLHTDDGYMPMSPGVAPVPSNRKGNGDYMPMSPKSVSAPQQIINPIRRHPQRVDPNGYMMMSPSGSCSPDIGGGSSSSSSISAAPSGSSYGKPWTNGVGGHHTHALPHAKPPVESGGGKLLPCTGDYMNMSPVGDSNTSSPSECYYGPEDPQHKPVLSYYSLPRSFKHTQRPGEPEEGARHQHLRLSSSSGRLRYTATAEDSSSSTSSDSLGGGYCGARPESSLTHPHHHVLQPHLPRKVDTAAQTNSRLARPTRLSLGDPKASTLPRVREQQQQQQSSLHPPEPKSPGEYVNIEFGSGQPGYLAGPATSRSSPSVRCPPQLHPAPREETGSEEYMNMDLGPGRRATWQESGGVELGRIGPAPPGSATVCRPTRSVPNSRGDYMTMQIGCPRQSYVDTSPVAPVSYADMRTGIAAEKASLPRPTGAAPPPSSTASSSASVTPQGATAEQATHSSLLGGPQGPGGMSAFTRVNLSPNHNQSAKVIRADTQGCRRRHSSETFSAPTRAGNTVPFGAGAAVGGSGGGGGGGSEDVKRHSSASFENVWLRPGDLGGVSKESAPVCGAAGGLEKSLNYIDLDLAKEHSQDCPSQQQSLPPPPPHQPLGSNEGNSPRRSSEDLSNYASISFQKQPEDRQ
Flag-labeled IRS1 100-300 domain: residues 100-300 of P35569
UniProt P03372: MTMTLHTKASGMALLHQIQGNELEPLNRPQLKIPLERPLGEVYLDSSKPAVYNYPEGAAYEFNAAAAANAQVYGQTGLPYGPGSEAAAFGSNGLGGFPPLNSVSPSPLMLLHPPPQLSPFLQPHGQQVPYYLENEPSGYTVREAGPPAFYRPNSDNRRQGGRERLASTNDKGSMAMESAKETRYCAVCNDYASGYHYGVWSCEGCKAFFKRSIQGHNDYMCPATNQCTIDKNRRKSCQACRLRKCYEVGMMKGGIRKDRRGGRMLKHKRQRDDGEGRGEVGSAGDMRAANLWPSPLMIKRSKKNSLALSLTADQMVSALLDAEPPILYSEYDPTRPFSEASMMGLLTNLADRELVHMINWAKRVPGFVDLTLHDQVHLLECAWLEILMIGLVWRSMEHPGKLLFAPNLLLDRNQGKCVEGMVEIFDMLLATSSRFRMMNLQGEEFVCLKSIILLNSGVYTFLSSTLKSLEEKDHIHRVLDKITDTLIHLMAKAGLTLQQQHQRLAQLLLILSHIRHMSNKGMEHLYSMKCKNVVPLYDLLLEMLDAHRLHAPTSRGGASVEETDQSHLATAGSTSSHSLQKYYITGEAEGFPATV

2 substances from publication PMC11035554 can be followed below.

What all share (experiment): co-IP; Flag-labeled IRS or truncated IRS proteins co-transfected with HA-labeled ERα or its truncated proteins in HEK293 cells for 30 h, 10 µM MG132 for 1 h, TNE buffer, anti-Flag antibody overnight at 4 °C, Dynabeads Protein G, HA detected by Western blotting; also with E2 treatment
Experiment [1] deals with Flag-labeled insulin receptor substrate 1 (IRS1) (UniProt P35569).
Experiment [2] deals with Flag-labeled IRS1 100-300 domain (UniProt P35569).
Experiment [3] concerns the target T1, Flag-labeled insulin receptor substrate 2 (IRS2) (UniProt P81122).
T1 sequence: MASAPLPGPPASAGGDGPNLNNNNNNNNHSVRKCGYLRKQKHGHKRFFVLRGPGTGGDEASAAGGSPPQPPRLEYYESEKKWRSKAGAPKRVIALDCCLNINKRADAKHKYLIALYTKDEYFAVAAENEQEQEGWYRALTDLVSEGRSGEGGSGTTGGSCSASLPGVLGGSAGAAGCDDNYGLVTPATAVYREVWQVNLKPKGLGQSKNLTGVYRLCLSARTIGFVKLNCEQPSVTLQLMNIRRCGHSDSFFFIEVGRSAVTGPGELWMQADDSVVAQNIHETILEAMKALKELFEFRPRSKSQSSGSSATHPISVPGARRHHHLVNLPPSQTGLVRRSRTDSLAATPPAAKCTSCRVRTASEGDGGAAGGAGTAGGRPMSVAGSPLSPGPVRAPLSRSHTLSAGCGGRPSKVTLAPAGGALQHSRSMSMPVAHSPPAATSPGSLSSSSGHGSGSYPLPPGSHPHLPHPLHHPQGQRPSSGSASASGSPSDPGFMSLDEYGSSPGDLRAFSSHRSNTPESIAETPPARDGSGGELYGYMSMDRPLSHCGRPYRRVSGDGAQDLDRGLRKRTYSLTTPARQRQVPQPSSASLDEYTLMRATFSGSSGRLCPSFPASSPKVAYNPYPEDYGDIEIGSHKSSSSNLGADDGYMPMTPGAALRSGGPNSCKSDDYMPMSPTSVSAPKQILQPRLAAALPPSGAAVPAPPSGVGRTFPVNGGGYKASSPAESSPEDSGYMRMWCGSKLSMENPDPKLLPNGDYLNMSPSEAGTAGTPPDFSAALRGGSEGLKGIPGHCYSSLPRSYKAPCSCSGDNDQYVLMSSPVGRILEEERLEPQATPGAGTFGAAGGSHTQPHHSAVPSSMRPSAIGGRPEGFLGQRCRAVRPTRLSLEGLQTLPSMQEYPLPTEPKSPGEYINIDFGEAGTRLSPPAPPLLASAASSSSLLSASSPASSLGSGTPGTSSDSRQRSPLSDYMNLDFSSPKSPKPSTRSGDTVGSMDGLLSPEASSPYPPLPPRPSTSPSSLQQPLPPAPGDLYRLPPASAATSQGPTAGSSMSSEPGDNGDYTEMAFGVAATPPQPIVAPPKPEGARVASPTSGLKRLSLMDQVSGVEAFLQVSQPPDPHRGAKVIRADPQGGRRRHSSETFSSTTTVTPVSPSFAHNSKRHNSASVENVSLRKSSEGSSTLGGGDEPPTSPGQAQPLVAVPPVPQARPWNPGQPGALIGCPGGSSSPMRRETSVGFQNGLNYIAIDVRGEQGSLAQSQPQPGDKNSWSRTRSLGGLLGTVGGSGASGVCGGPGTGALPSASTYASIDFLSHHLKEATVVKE

Turning to “HA-labeled estrogen receptor α (ERα) (from UniProt P03372 1-595)”, the binding entry in experiment [1], in experiment [2] and in experiment [3] was “binds” each time.

For the substance “HA-labeled ERα 1-280 domain (AF1 + DBD) (from UniProt P03372 1-280) (domain or fragment)”, the binding result in experiment [2] was “binds”.
